# Results: the supplement of paper PMC7824004
# Some of the results follow. The data scatter; read single values as rough.
# Test system: Candida albicans SN425
# Experiment: biofilm OD600 B-score; higher = more biofilm (less inhibition)
# Conditions: 10 µM; assay detail: High-throughput adherence inhibition optical density biofilm assay with C. albicans SN425 in RPMI-1640/MOPS pH 7.0, 384-well plates. …
# Experimental: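 High-throughput adherence inhibition optical density biofilm assay with C. albicans SN425 in RPMI-1640/MOPS pH 7.0, 384-well plates. Compound (10 µM) was present only during the 90 min adherence step, then washed out, and the biofilm grew 24 h without compound. Biofilm was read as OD600 after removing the media. Scores are the difference from the mean in standard deviations and the plate B-score.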
row,SMILES,biofilm OD600 B-score
1,CCOC(=O)N1CC(C)N(C(=O)OCC)CC1C (stereo not given),-1.51
2,c1ccc(CN2CCN(c3ccccn3)CC2)cc1,-1.51
3,O=C(CCCOc1ccccc1)N1CCCCCC1,0.303
4,CC(C)Oc1ccccc1NC(=O)CSc1nnnn1C,-0.0794
5,CCCC(=O)Nc1ccc(Cc2ccncc2)cc1,-0.854
6,CC1CCCN(C(=O)C(C)Oc2ccccc2)C1 (stereo not given),-0.57
7,CC1CC(O)(C#N)C(C)CN1C (stereo not given),0.0937
8,COc1cc(OC)c(OC)cc1CN1CCC(O)CC1,-0.0642
9,CCC1CCC(N(CC)CCN(C)C)CC1 (stereo not given),-0.862
10,O=C(Cc1ccc(Br)cc1)N1CCOCC1,-1.38
11,COc1ccc(C2(CNC(C)=O)CCOCC2)cc1OC,-3.03
12,CC(=O)Nc1ccc(S(=O)(=O)Nc2ccc(Cl)cc2F)cc1,-1.17
13,N#CCC(=O)c1ccc(N)cc1,1.62
14,Clc1ccccc1OCCCCN1CCOCC1,0.0139
15,CC1CCCC(NC2CCN(Cc3ccccc3)CC2)C1 (stereo not given),4.75
16,Cc1oc(-c2ccccc2)cc1C(N)=O,-0.534
17,C1CCCC(NCCCN2CCOCC2)CC1,-0.84
18,NC(=O)CSCc1ccccc1Cl,-2.62
19,NC(CC(=O)O)c1ccc(Cl)cc1 (stereo not given),2.84
20,COC(=O)Nc1ccc(OCC(=O)N2CCOCC2)cc1,-0.543

row,SMILES,biofilm OD600 B-score
1,COc1ccc(S(=O)(=O)Nc2cccc(SC)c2)cc1OC,-0.741
2,CCOC(=O)N1CCC(NC2C3CC4CC(C3)CC2C4)CC1 (stereo not given),-4.23
3,OC(COCc1ccc(Cl)cc1)CN1CCOCC1 (stereo not given),0.803
4,O=C(O)CCCC(=O)N1CCCc2ccccc21,0.143
5,CC(C)C(=O)Nc1ccc(NC(=O)Cc2ccccc2)cc1,-2.15
6,Cc1cc(OCC(N)=O)cc(C)c1Br,0.601
7,Cc1cccc(OCCN2CCOCC2)c1C,-1.29
8,CCC(C(=O)N1CCOCC1)c1ccccc1 (stereo not given),4.9
9,CC(=O)Nc1ccc(S(=O)(=O)NCc2cccs2)cc1,1.22
10,O=C(Cc1ccc(F)cc1)NCc1ccccn1,-3
11,CC(C)(C)NC(=O)CSc1nnc(-c2ccccc2)o1,0.224
12,CCN(CC)C(=O)c1ccc(OC)c(OC)c1,1.27
13,CN1CCN(CC(O)COc2ccccc2)CC1 (stereo not given),2.5
14,COc1ccc(N2CCN(C(=O)COCC(=O)O)CC2)cc1,0.0198
15,CC(=O)NC12CC3CC(CC(O)(C3)C1)C2,1.56
16,CCOC(=O)N1CCN(Cc2c(F)cccc2F)CC1,0.00699
17,O=C(O)C1C2CCC(C2)C1C(=O)NCC1CCCO1 (stereo not given),1.13
18,CCCN1CCC(NCCc2ccccc2OC)CC1,1
19,O=C(O)CCCC(=O)Nc1ccccc1Br,-0.982
20,Cc1cc(=O)[nH]c(SCCOc2ccccc2C)n1,0.916

# As entered above.
# Under biofilm OD600 B-score, `CN1CCN(CC(O)COc2ccccc2)CC1` (stereo not given) reads 2.5
# Under biofilm OD600 B-score, `CCOC(=O)N1CCC(NC2C3CC4CC(C3)CC2C4)CC1` (stereo not given) reads -4.23
# Under biofilm OD600 B-score, `CCN(CC)C(=O)c1ccc(OC)c(OC)c1` reads 1.27
